From patent publication US20120301930A1
Results are given in words; binding and its absence hold for the method and conditions named. Some results given as binding are weak or reduced against the parent protein; the word gives no strength. Where a sequence is shown, tags or fusion partners need not be part of it.

Molecular target: T1, f-5A chimera (catalytic module of T. fusca family-5 endoglucanase Cel5A fused to a dockerin from Ruminococcus flavefaciens)
T1 sequence: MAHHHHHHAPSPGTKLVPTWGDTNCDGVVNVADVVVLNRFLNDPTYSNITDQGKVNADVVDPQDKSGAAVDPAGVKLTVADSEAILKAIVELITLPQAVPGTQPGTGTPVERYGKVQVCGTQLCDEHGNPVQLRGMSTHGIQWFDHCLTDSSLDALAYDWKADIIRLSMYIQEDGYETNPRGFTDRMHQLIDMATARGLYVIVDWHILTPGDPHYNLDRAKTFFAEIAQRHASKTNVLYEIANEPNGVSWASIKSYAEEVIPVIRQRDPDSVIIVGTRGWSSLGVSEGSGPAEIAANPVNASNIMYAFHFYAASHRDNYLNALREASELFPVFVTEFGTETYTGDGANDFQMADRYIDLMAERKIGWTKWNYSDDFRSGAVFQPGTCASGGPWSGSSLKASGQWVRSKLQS
Assay: affinity-based ELISA

- binding: binds
B1: Scaf-F single-cohesin scaffoldin (CBM with R. flavefaciens cohesin) (protein)
chain: MANTPVSGNLKVEFYNSNPSDTTNSINPQFKVTNTGSSAIDLSKLTLRYYYTVDGQKDQTFWCDHAAIIGSNGSYNGITSNVKGTFVKMSSSTNNADTYLEISFTGGTLEPGAHVQIQGRFAKNDWSNYTQSNDYSFKSASQFVEWDQVTAYLNGVLVWGKEPGGSVVPSTQPVTTPPATTKPPATTIPPSDDPNAGSANRTAADGTVEWLIPTVTAAPGQTVTMPVVVKSSSLAVAGAQFKIQAATGVRYSKTDGDAYGSGIVYNNSKYAFGQGAGRGIVAADDSVVLTLAYTVPADCAEGTYDVKWSDAFVSDTDGQNITSKVTLTDGAIIVKKDN
